Values quoted from earlier work, collected in patent US20010056582A1, “PAIRED MUTATIONS” (priority 1997, published 2001).
Structures can show the parent of a compound that is named as a salt. The amount applied is not stated for every result.

test system: post-cell stages of spermatogenesis (male germ cells); conditions: mouse, in vivo; cited from earlier work

For C=CC(N)=O [AA, acrylamide monomer], which “Period of maximum effect days” value is on record?
The value was 8 to 14 days.

same assay, conditions: postexposure; at the listed exposure (mg/kg); cited from earlier work

Which “Period of maximum effect days” value does the source give for CCN(N=O)C(N)=O [ENU, N-ethyl-N-nitrosourea] here?
The value was 32 to 38 days.

Which “Period of maximum effect days” value does the source give for O=P1(N(CCCl)CCCl)NCCCO1 (centres unmarked) [Cp, cyclophosphamide] here?
Its value is 1 to 14 days.

With CCOS(=O)(=O)OCC [Et2SO4, diethyl sulfate] as the compound, how does the “Period of maximum effect days” value read?
The value was 5 to 12 days.

For O=C(O)CCCc1ccc(N(CCCl)CCCl)cc1 [Chl, chlorambucil], which “Period of maximum effect days” value is on record?
The value was 15 to 21 days.

With COS(C)(=O)=O [MeMs, methyl methanesulforate] as the compound, how does the “Period of maximum effect days” value read?
The value was 5 to 12 days.

With CN(N=O)C(N)=O [MNU, N-methyl N-nitrosourea] as the compound, how does the “Period of maximum effect days” value read?
The value was 36 to 42 days.

Which “Period of maximum effect days” value does the source give for CCOS(C)(=O)=O [EtMs, ethyl methanesulforate] here?
The value was 5 to 12 days.
